Experimental data from publication PMC12165075.
No constants are given. Whether binding was seen depends on the method and setting. Binding seen in cells or lysates may run through a third protein. Some results given as binding are weak or reduced against the parent protein; the word gives no strength.

By UniProt entry, the sequences of proteins in these tests, tags left out.
UniProt Q06609: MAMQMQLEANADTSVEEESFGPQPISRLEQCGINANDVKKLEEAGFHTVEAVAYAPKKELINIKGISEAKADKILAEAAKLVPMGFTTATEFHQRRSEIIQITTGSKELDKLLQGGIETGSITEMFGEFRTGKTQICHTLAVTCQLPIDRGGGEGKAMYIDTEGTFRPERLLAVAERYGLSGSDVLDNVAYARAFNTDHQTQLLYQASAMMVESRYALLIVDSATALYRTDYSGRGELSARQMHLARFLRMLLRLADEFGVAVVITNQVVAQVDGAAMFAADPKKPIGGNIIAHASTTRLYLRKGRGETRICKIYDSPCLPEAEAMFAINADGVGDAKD

Biological target: RNF8 (as used in Figures S3d and S3g; construct not shown) (UniProt O76064)
Test: co-IP; Figure S3g; RNF8 and RAD51 with regard to S157 phosphorylation; cells and constructs not told in the text shown

Substance: RAD51 (from UniProt Q06609 1-339)
- binding: binds
